Some results were stated once for a whole list of compounds, not compound by compound.
System: sIgG+CD45R+ B-cells
Experiment: IgG secretion by in vitro cultivated pools of sIgG+CD45R+ B-cells (sheep IgG ELISA of supernatants)
Assay type: cell-based
Details: IMDM as basal medium
Source text: To exemplify the current invention PBMCs were isolated from sheep immunized with a KLH-conjugated hapten and underwent positive panning using the biotinylated hapten and magnetic streptavidin beads to enrich antigen-specific B-cells. Subsequently, B-cells were stained for both surface IgG (sIgG) and the B-cell marker CD45R or CD21. Pools of 50 cells (sIgG^+CD45R^+ or sIgG^+CD21^+) were sorted into 96-well plates using a BD FACS Aria cell sorter. Cells were cultivated in medium supplemented with different factors in order to identify a medium composition that promotes the proliferation of the B-cells as well as the differentiation to IgG secreting cells (i.e. plasma cells)
In all experiment the basal medium was supplemented with 10% FCS, SAC and sheep TSN. Cells were cultivated in the presence of EL4B5 feeder cells.
Pools of 50 cells/well of antigen-enriched sIgG^+CD45R^+ B-cells were cultivated in the different media in a 96-well plate in the presence of EL4B5 feeder cells. After one week of cultivation the sheep IgG concentration of the supernatants was analyzed using a sheep IgG ELISA. […]
Suffolk-Merino sheep were immunized several times using a KLH-coupled hapten as immunogen (500 μg dose formulated in an adjuvant). […] After centrifugation the PBMCs (peripheral blood mononuclear cells) were collected, washed with PBS and counted using a counting chamber. […]

IL-6: human IL-6 (Roche Diagnostics GmbH), 50 ng/ml added to the basal medium
wells with a high IgG concentration (200-400 ng/ml): 5-9% | wells with an average IgG concentration (50-200 ng/ml): 60-70%

Reference: patent US11560420B2, “Method for producing antibodies using ovine B-cells and uses thereof” (Roche Diagnostics Operations, Inc., priority 2013, dated 2023)
